In article doi:10.1101/2022.07.28.501929:

Tested on: Human alpha-thrombin (Factor IIa) (Homo sapiens)
Test: bead fluorescence binding

Sequence “AATTCCGAAGTCCGTGGTAGGGCAGGTTGGGGTGACTATCGACGG / TCGGAATTCCGTCGAT [SAM16-16 with EcoRI site]” has a Kd (before EcoRI digestion) of 1690 nM.

“AATTCCGAAGTCCGTGGTAGGGCAGGTTGGGGTGACTATCGACGG [EcoRI-site aptamer strand alone (control)]”: binds (no inhibitor strand).

“ACGTGAGAGAGTCCGTGGTAGGGCAGGTTGGGGTGACTATACGACGA / CTCTCACGTTCGTCGTAT [SAM18-18]”: binds more weakly.

“ACGTGAGAAGTCCGTGGTAGGGCAGGTTGGGGTGACTTACGACGA / TCTCACGTTTCGTCGTA [SAM16 with gap = 1]”: binds.

“ACGTGAGAAGTCCGTGGTAGGGCAGGTTGGGGTGACTTACGACGA / TCTCACGTTTTCGTCGTA [SAM16 with gap = 2]”: binds.

Where two headings read alike, the source gives them in different places. The comparison behind a weaker result is the experiment's own reference, which may not be listed here. The exact form of at least one protein or probe is not confirmed. At least one verdict rests on a figure or table, not on a statement of the authors.
